Experimental data as given in the supplement of paper PMC10849652.
This is one part of the list.

By UniProt entry, the sequences of proteins in these tests, tags left out. Where a name states a change or a piece, a line headed by the entry shows the natural chain unless it says otherwise.
UniProt Q15717, whole entry, looked up: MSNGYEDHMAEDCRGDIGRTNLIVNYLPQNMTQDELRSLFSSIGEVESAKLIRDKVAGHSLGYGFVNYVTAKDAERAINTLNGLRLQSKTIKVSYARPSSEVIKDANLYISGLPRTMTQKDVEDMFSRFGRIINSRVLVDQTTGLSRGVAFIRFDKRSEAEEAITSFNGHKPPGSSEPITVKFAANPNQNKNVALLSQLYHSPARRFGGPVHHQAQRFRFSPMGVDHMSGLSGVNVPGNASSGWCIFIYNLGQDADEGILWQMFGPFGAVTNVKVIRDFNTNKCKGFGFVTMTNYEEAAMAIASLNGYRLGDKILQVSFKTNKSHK
UniProt P78344: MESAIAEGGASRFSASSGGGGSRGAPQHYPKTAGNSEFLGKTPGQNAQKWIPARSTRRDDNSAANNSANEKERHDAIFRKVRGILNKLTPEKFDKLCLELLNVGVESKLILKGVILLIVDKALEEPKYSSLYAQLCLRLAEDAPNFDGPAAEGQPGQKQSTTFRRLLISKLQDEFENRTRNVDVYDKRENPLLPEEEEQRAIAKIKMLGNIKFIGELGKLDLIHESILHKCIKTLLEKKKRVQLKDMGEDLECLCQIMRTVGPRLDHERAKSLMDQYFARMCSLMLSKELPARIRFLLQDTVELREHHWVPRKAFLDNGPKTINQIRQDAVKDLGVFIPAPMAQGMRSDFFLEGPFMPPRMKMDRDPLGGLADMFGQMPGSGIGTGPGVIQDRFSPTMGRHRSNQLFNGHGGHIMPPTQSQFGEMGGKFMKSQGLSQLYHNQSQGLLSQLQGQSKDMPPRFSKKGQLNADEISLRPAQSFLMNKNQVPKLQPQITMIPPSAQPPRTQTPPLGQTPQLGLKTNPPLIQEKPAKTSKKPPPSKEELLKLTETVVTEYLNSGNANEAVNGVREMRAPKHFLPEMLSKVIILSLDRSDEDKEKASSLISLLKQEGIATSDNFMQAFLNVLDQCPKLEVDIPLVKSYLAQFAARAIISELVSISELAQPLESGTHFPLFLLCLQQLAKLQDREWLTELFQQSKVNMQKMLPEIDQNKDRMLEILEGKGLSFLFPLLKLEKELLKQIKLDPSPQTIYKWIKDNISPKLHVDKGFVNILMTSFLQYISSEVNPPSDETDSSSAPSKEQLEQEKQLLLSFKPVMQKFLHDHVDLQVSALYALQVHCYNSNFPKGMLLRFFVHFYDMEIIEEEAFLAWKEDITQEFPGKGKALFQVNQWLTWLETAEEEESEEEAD
UniProt P05198, whole entry, looked up: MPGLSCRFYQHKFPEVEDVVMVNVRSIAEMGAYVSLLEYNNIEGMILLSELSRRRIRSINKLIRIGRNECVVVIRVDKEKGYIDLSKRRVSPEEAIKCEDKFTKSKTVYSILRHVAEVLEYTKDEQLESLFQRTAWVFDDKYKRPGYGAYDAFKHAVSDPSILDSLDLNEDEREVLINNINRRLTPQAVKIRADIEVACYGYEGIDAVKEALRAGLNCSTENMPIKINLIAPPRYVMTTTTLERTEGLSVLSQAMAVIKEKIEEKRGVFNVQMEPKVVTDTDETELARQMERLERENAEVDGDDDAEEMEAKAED
UniProt Q09472, whole entry, looked up: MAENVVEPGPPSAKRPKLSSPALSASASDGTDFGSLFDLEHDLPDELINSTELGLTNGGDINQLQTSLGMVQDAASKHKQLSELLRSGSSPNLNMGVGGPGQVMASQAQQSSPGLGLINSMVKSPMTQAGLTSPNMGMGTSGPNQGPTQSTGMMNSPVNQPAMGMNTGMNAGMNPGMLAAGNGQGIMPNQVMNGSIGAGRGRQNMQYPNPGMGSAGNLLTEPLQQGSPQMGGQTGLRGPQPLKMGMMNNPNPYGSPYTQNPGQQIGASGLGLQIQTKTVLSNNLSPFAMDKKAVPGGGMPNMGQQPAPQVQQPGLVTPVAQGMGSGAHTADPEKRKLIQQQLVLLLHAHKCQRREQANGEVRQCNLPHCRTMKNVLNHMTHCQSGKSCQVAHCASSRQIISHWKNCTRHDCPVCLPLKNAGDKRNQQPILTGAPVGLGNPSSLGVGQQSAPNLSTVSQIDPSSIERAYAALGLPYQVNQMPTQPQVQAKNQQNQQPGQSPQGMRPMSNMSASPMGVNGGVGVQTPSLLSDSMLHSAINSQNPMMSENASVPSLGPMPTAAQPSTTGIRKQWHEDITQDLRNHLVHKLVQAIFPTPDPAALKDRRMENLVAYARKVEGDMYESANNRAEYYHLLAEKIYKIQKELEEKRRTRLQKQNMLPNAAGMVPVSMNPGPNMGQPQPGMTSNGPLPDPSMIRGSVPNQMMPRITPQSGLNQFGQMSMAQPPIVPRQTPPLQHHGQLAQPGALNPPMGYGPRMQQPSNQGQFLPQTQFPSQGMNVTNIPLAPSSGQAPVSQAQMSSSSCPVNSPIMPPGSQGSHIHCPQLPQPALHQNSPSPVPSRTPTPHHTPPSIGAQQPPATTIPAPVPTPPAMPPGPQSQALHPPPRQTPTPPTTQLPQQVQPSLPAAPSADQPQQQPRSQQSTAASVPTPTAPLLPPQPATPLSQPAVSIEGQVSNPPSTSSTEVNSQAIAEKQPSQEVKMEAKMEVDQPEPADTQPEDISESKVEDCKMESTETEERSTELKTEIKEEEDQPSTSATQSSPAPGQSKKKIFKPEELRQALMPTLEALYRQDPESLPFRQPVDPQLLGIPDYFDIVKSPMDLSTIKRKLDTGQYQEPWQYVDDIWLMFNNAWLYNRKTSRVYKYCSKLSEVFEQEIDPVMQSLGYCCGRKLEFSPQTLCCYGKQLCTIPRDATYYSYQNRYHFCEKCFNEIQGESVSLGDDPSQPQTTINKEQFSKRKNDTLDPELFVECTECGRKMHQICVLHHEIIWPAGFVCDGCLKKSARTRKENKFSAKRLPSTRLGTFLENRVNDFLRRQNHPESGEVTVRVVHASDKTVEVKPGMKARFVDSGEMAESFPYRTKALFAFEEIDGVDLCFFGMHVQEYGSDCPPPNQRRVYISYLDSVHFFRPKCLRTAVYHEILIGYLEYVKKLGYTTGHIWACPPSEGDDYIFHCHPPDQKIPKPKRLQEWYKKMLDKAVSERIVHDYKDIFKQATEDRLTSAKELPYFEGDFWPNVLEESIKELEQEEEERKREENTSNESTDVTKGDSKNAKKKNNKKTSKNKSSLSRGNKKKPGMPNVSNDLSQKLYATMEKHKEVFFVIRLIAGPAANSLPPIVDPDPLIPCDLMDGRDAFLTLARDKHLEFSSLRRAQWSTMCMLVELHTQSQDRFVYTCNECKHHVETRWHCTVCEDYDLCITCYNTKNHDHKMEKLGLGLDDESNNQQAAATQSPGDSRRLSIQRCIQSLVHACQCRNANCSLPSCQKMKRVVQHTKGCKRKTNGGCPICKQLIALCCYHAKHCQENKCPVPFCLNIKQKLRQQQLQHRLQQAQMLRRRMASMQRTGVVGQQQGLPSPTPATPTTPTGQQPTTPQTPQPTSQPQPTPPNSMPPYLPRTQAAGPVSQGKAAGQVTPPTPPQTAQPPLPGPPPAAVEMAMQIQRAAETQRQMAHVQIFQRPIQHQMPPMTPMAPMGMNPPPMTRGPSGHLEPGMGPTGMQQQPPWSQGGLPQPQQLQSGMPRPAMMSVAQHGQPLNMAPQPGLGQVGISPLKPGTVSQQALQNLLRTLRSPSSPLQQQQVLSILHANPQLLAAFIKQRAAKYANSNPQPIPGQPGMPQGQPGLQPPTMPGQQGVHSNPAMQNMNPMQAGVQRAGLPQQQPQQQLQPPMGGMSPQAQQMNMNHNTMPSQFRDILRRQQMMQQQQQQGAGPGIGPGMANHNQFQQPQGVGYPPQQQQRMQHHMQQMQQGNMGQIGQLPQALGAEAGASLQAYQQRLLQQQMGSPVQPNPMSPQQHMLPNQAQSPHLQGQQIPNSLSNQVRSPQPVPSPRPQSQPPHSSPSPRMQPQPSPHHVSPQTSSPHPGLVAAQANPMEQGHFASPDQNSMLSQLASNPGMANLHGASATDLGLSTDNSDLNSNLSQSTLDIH
UniProt P54852: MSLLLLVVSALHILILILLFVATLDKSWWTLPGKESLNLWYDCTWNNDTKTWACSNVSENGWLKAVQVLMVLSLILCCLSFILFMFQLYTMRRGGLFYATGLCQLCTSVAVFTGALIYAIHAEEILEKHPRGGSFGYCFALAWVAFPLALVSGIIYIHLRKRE
UniProt Q9UI10, whole entry, looked up: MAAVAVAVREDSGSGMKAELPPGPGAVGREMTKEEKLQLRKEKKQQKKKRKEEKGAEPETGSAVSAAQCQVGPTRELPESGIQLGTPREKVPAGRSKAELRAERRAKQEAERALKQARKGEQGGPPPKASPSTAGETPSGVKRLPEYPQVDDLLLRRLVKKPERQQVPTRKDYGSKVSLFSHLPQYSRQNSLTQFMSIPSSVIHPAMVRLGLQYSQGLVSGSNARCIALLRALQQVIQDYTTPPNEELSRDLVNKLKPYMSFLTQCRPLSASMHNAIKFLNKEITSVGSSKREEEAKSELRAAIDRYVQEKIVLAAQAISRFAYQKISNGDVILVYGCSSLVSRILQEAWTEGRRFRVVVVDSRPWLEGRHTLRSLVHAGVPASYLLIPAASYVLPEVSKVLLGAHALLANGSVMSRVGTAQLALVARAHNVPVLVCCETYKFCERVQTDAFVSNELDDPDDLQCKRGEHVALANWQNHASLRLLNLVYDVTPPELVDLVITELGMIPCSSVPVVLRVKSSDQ
UniProt Q9BQ52: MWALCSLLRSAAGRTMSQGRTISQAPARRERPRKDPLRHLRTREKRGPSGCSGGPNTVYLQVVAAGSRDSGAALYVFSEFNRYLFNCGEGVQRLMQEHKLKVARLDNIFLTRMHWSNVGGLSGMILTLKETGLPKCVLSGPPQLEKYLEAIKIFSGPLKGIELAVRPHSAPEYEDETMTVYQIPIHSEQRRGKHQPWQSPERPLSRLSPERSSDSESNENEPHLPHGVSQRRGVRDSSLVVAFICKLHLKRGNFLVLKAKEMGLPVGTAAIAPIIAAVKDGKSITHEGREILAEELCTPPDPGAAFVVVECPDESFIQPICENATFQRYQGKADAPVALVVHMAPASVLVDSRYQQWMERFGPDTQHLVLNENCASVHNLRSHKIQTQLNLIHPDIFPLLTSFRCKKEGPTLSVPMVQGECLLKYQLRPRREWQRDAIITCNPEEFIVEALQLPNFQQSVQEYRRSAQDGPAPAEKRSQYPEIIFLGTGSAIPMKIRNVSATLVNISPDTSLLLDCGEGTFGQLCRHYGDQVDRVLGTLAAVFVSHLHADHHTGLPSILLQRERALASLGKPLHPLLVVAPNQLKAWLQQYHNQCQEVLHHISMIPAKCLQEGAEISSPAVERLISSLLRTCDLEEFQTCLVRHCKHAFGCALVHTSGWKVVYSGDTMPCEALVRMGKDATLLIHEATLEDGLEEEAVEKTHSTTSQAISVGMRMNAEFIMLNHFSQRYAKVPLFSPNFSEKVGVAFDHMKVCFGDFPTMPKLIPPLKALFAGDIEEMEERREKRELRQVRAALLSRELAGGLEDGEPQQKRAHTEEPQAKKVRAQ
UniProt Q6IA86: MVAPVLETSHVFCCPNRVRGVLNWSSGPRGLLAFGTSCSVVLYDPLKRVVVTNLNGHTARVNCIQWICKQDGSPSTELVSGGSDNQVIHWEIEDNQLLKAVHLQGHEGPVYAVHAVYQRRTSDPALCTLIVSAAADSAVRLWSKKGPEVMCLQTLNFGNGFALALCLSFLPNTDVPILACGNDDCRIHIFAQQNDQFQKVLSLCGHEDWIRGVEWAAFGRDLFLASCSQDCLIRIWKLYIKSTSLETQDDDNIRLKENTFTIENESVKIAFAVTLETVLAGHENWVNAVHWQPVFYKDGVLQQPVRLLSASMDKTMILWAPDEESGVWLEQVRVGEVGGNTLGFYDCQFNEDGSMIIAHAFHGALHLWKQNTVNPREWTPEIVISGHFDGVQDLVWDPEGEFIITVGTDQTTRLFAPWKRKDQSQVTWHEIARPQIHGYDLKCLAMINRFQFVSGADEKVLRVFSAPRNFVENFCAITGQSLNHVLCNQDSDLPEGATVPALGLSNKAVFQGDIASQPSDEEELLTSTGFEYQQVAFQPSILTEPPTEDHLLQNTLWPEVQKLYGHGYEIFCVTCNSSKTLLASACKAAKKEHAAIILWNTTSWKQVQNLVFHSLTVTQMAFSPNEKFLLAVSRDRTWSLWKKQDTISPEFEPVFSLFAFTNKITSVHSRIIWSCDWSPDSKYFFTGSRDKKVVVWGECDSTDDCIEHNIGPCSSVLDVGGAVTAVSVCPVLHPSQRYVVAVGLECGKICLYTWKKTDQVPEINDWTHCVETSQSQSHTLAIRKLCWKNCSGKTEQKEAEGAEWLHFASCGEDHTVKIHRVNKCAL
UniProt Q0PNE2: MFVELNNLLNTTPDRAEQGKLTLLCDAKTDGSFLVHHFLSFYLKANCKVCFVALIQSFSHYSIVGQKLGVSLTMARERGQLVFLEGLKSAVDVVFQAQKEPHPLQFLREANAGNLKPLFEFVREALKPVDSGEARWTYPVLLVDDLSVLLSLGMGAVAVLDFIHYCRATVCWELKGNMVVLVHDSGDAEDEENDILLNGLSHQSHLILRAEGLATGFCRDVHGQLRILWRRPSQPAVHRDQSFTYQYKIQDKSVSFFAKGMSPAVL

What follows are targets tested with c1cn2cc(-c3ccc4cn[nH]c4c3)nc(Nc3ccc(N4CCOCC4)cc3)c2n1 [entospletinib] (assay: log2 fold change, soluble protein after heating vs DMSO (PISA); higher = thermal stabilisation; K562 cells, 10 uM, 30 min; active = over 0.2 and 3.5 SD of the protein, either way, in both replicates (recomputed)).
Method in brief: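 Soluble protein was defined as the supernatant after 21,000xg for 90 min. It came from K562 cells at 2×10^6 cells/mL given 10 μM compound for 30 min, heated in aliquots for 3 min across 48°C-58°C, pooled, and extracted in PBS with 0.5% NP-40 at 4°C, and was quantified by TMTpro 16plex LC-MS/MS with equalised channel sums. Thermal stability against control samples, from duplicates, is reported as log2 fold change.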

log2 fold change, inactive:
ELAVL1 isoform 2 (UniProt Q15717) 0.121
EMC6 (UniProt Q9BV81) 0.099
EIF4G2 (UniProt P78344) 0.233
EIF2S1 (UniProt P05198) -0.015
EIF4H (UniProt Q15056) 0.003
EP300 (UniProt Q09472) 0.046
EMP3 (UniProt P54852) 0.094
EML3 isoform 2 (UniProt Q32P44) -0.145
EIF2B4 isoform 2 (UniProt Q9UI10) -0.039
EIF2B5 (UniProt Q13144) 0.003
ELAC2 (UniProt Q9BQ52) 0.029
EPB41L1 (UniProt Q9H4G0) 0.028
ELP2 isoform 6 (UniProt Q6IA86) -0.019
EIF4B (UniProt P23588) 0.015
EHHADH (UniProt Q08426) -0.038
EMC2 (UniProt Q15006) -0.013
EFNB1 (UniProt P98172) -0.041
ELP6 (UniProt Q0PNE2) -0.006
EMC4 (UniProt Q5J8M3) -0.002
ELP5 isoform 4 (UniProt Q8TE02) -0.029
ELOB (UniProt Q15370) 0.025
EIF4EBP1 (UniProt Q13541) -0.025
ENTPD5 (UniProt O75356) -0.079

Pulled one by one from the list above:
log2 fold change, inactive:
EMC4 (UniProt Q5J8M3) -0.002
EIF4B (UniProt P23588) 0.015
